# Source: PubChem BioAssay AID2685 (National Center for Advancing Translational Sciences (NCATS), 2010)
# The list shows a part of the results. These are further read-outs of the screen, such as a control signal, another cell line or another target. No call is given for them. The list favours compounds with an active or inconclusive main result. The note in brackets gives the kind of curve behind each potency; many fits are weak.
# Test: qHTS Assay for Lipid Storage Modulators in Drosophila S3 Cells;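 for cell number change: cells counted by Cell Tracker Red CMTPX staining in the red channel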
# Conditions: BODIPY lipid droplet fluorescence, 18-24 h; for cell number change: measured here: cell count max response, cells fed with added oleic acid
# Method in brief: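 Drosophila S3 cells got compounds at several concentrations plus oleic acid (400 uM solution). Laser-scanning cytometry with 488 nm excitation read lipid droplets at 500-530 nm and cells at 575-640 nm. Percent activity was relative to 20 uM Triacsin C.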
# [1] = measured here: cell number channel AC50, cells fed with added oleic acid
# [2] = measured here: lipid fluorescence (Fed channel) AC50, cells fed with added oleic acid
SMILES,cell number change,AC50 [1],AC50 [2]
COc1ccccc1CN1CCN(C(=O)COc2ccccc2)CC1,60.9%,"0.651 µM [rising, full curve]",–
CCN(CC)C(=O)c1ccc(NC(=O)c2cn(-c3ccccc3)nc2-c2ccc(OC)cc2)cc1,–,–,"0.731 µM [falling, full curve, poor fit]"
CCCNC(=O)N1[C@H]2CC[C@@H]1C(C(=O)OC)=C(c1ccc(-c3ccccc3)c(F)c1)C2,-7.49%,–,"4.61 µM [falling, partial curve]"
CC1=CC(=C2C(=O)NC(=O)NC2=O)C=C(C(F)(F)F)N1Cc1ccccc1,134%,–,–
O=c1cccc2n1CC1CC2CN(Cc2c(Cl)cccc2Cl)C1 (centres undefined),-5.67%,–,"3.26 µM [falling, full curve]"
COC(=O)C(NC(=S)N1CC2C[C@@H](C1)Cn1c2cccc1=O)C(C)C (some centres undefined),11.1%,–,"0.58 µM [rising, single point]"
Cc1cc(OCc2cc(C(=O)O)oc2C)c2c3c(c(=O)oc2c1)CCCC3,3.3%,"0.13 µM [falling, full curve, poor fit]",–
COc1cc(C2SCC(=O)Nc3c2c(=O)[nH]n3C2CCCCCC2)cc(OC)c1OC (centres undefined),-1.81%,–,–
COc1ccccc1NC(=O)Cn1c(=O)oc2cc(S(=O)(=O)N3CCCC3)ccc21,–,"4.11 µM [rising, partial curve]",–
COc1ccccc1N1CCN(C2CCCN(C(=O)COc3ccccc3Cl)C2)CC1 (centres undefined),-16.9%,–,–
COC(=O)C1=C(c2c(C)noc2C)C[C@@H]2CC[C@H]1N2C(=O)NCc1ccc(C(F)(F)F)cc1,-4.85%,–,–
CC(C)CC(NC(=O)CCCNC(=O)CCC(=O)OC1O[C@H]2OC3(C)CC[C@H]4[C@H](C)CCC(C1C)C24OO3)C(=O)O (some centres undefined),30.5%,–,"29.1 µM [rising, single point]"
CN(C)C(=O)NC(O)C(Cl)(Cl)Cl (centres undefined),-83.7%,"6.51 µM [falling, full curve]","29.1 µM [falling, single point]"
COc1ccccc1-n1c(-c2ccc(C)cc2)nc2ccccc2c1=O,-18.1%,–,–
COc1cc(/C=C/[N+](=O)[O-])ccc1OC(=O)c1cccnc1,14.4%,"0.103 µM [rising, full curve, poor fit]","0.731 µM [falling, full curve, poor fit]"
S=C=Nc1ccccn1,58.7%,"18.4 µM [rising, partial curve]",–
CC(=O)c1ccc(OCC(=O)N2CCCC(N(C)Cc3ccccc3)C2)cc1 (centres undefined),–,"0.651 µM [rising, single point]",–
COC(=O)C1=C(c2ccccc2OCc2ccccc2)C[C@@H]2CC[C@H]1N2C(=O)NCCc1ccc(F)cc1,11.2%,–,"0.82 µM [falling, single point]"
COC(=O)C1=C(c2ccc(F)cc2OCc2ccccc2)C[C@@H]2CC[C@H]1N2C(=O)NCc1cccc(F)c1,-3.43%,–,"13 µM [falling, partial curve, poor fit]"

SMILES,cell number change,AC50 [1],AC50 [2]
N=c1c[n+](C2CCCCC2)[n-]o1,22.5%,"3.66 µM [rising, single point]","0.0259 µM [rising, full curve, poor fit]"
O=C1NC(=O)C(CCc2ccncc2)(Cc2ccc([N+](=O)[O-])cc2)C(=O)N1,22.8%,–,–
Cc1nc2ccccc2c(=O)n1-c1ccc(Cl)cc1[N+](=O)[O-],-1.51%,–,–
Cc1nn(Cc2ccccc2)c(Cl)c1C(=O)Nc1ccc(OC(F)(F)F)cc1,-20.3%,–,"16.4 µM [falling, single point]"
COC(=O)C1=C(c2ccc(-c3ccccc3)c(F)c2)C[C@@H]2CC[C@H]1N2C(=O)NCCCOC(C)C,-6.69%,–,"3.66 µM [rising, partial curve]"
O=C(O)C12C3CCCC1C32c1ccccc1 (centres undefined),0.151%,–,"0.82 µM [rising, partial curve, poor fit]"
CCN(CC)c1ccc(CN(C)CCc2ccc(OC)c(OC)c2)cc1,20.6%,–,"23.1 µM [rising, partial curve, poor fit]"
O=S(=O)(c1ccc(Cl)cc1)c1ccc(Cl)cc1,15.4%,"0.461 µM [falling, single point]","0.58 µM [falling, single point]"
CN1C(=O)C(=Cc2c(OCc3cnc(Cl)s3)ccc3ccccc23)C(=O)N(C)C1=O,-8.51%,–,"0.116 µM [rising, single point]"
O=c1[nH]c(=O)n(C2CCCCC2)c(O)c1/C=C/C=Nc1ccccc1,-25.1%,–,"20.6 µM [falling, partial curve, poor fit]"
CCCCCCCCCCCCn1ccc(=N)cc1,-60%,"1.16 µM [falling, full curve]",–
O=C1NC(=O)C(CCc2ccccn2)(Cc2cccc(Cl)c2Cl)C(=O)N1c1ccc(Br)cc1 (centres undefined),4.82%,–,–
COc1ccc(-n2nc(C(=O)NCC(=O)N3CCC4(CC3)OCCO4)c3ccccc3c2=O)cc1Cl,-19.8%,–,"29.1 µM [falling, partial curve]"
COC(=O)C1=C(c2ccc(OCc3ccccc3)cc2)C[C@@H]2CC[C@H]1N2C(=O)NC1CCN(Cc2ccccc2)CC1,-58%,"8.2 µM [falling, partial curve]","3.66 µM [falling, full curve]"
c1ccc2c3c(ccc2c1)OCC1CONC31 (centres undefined),-14.2%,"0.13 µM [falling, full curve, poor fit]","0.092 µM [falling, full curve, poor fit]"
Cc1cc(CN(C)C)c(OC(=O)N(C)C)cc1C,-7.64%,–,"18.4 µM [falling, single point]"
COc1ccccc1N1CCN(Cc2ccc(Br)cc2)CC1,-25.2%,–,"29.1 µM [falling, single point]"
Cc1cc(N2C(=O)C3CCCN3C2c2ccccc2)no1 (centres undefined),–,–,"0.058 µM [rising, full curve]"
CN1CCN(C(=O)COc2ccc(Oc3ccccc3)cc2)CC1,–,–,"0.58 µM [rising, single point]"

# Laid out differently: results already given.
SMILES | cell number change | AC50 [1] | AC50 [2]
CC1=CC(=C2C(=O)NC(=O)NC2=O)C=C(C(F)(F)F)N1Cc1ccccc1 | 134% | – | –
Cc1cc(OCc2cc(C(=O)O)oc2C)c2c3c(c(=O)oc2c1)CCCC3 | 3.3% | 0.13 µM [falling, full curve, poor fit] | –
CC(C)CC(NC(=O)CCCNC(=O)CCC(=O)OC1O[C@H]2OC3(C)CC[C@H]4[C@H](C)CCC(C1C)C24OO3)C(=O)O (some centres undefined) | 30.5% | – | 29.1 µM [rising, single point]
COC(=O)C1=C(c2ccccc2OCc2ccccc2)C[C@@H]2CC[C@H]1N2C(=O)NCCc1ccc(F)cc1 | 11.2% | – | 0.82 µM [falling, single point]
O=C1NC(=O)C(CCc2ccncc2)(Cc2ccc([N+](=O)[O-])cc2)C(=O)N1 | 22.8% | – | –
c1ccc2c3c(ccc2c1)OCC1CONC31 (centres undefined) | -14.2% | 0.13 µM [falling, full curve, poor fit] | 0.092 µM [falling, full curve, poor fit]
Cc1cc(N2C(=O)C3CCCN3C2c2ccccc2)no1 (centres undefined) | – | – | 0.058 µM [rising, full curve]
CN1CCN(C(=O)COc2ccc(Oc3ccccc3)cc2)CC1 | – | – | 0.58 µM [rising, single point]
